PubChem BioAssay AID493014 (National Center for Advancing Translational Sciences (NCATS), 2011)
Among all 340,000 compounds or so, about 170 (0.05%) were called active. Inconclusive means that the source gave no clear call. Such entries were picked first, then a sample of the others. Calls come from the whole dose curve; as a rule, active = well fitted inhibition curve with a large enough effect in the signal ratio, with a control signal flat (not every such curve was filed as active); inconclusive = small, poorly fitted or top-dose-only effect, or effect the other way, or a change in a side signal; inactive = flat fitted curve, though single readings scatter; the % refers to the signal ratio. Potencies of inconclusive entries are doubtful fits and often do not repeat.

assay: qHTS Assay to Find Inhibitors of Chronic Active B-Cell Receptor Signaling; details: ABC-DLBCL IkBa-CBG/CBR reporter, luminescence ratio (green luciferase fused to IkBa over red control in TMD8 lymphoma cells), 4 h; activity change, negative = inhibition: at 46.1 µM (top of the series);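 for activity change, negative = inhibition: plate controls were basal doxycycline-induced cells for no effect and cells given 10 µM MG132 for full effect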
Outline: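 Concentration-response series (up to 46 uM) were applied to TMD8 dual-reporter cells for 4 h at 37C with doxycycline. Green/red ratio, after filter-overlap correction, defined %Activity; red signal alone was normalised to basal cells and zero luminescence.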
Potency is the fitted concentration of half-maximal effect.

Row | Structure (SMILES) | activity change, negative = inhibition | Potency
1 | CCN(CC)S(=O)(=O)c1ccc2oc(C(=O)N3CCc4ccccc4C3)c(C)c2c1 | inconclusive: -2.15% | 
2 | CCCCn1c(C)cc(C)c(S(=O)(=O)c2ccccc2C)c1=O |  | inconclusive: 10.3 µM [rising, partial curve]
3 | Cc1nn2c(-c3cccc(NC(=O)c4ccco4)c3)nnc2c2ccccc12 |  | inconclusive: 6.51 µM [rising, full curve, poor fit]
4 | Cc1cccc(NC(=O)CSc2nc3ccccc3c(=O)n2C)c1 | inconclusive: 4.46% | 
5 | C=CCc1c(C)nc(-c2ccccc2)nc1N/N=C(\C)c1ccccc1 |  | inconclusive: 0.517 µM [activator, full curve, poor fit]
6 | O=C(C1=C[C@H](C2CCCCC2)C[C@H](OCc2ccc(CO)cc2)O1)N1CCN(Cc2ccc3c(c2)OCO3)CC1 | inconclusive: -0.133% | 
7 | O=C(c1ccc(-c2cccc(C(F)(F)F)c2)o1)N1CCN(c2ccccc2O)CC1 | inactive | 
8 | O=C(NC(=S)N1CCc2ccccc21)c1ccccc1 |  | inconclusive: 3.66 µM [falling, single point]
9 | CCOc1ccc2nc(NC(=O)CN3CCC(n4nnc5cc(C(F)(F)F)ccc54)CC3)sc2c1 | inactive | 
10 | O=S(=O)(c1cccc(NC(=S)Nc2ccc(Br)cc2Cl)c1)N1CCOCC1 | inactive | 
11 | CCOc1cc(N2CCOCC2)c(OCC)cc1NC(=O)C1CCCC1 | inactive | 
12 | Cc1ccc(C(=O)OCC(=O)Nc2cccc(S(=O)(=O)NC3=NCCCCC3)c2)c(C)c1 |  | inconclusive: 35.5 µM [falling, single point]
13 | Cc1cc(C)c(C(=O)N2CCCC(N3CCN(c4ccc(F)cc4)CC3)C2)o1 (stereo unspecified) | inactive | 
14 | CC(=O)OCC1(C)CN(c2ccccc2)N(C(=O)c2ccc(C(C)(C)C)cc2)C1=O (stereo unspecified) | inactive | 
15 | COc1ccc(/C=N/Nc2ccccn2)cc1OC |  | inconclusive: 15.8 µM [falling, single point]
16 | CC(=O)Nc1ccc(C(=O)N2CCN(C(=O)c3ccco3)CC2)cc1 |  | inconclusive: 29.1 µM [falling, single point]
17 | C[C@H](NC(=O)c1ccc(Cl)cc1)C(=O)NNC(=O)c1cccs1 | inconclusive: 3.55% | 
18 | Cc1ccc(S(=O)(=O)N(C)CC(=O)OCC(=O)N2CC(=O)Nc3ccccc32)cc1 |  | inconclusive: 35.5 µM [rising, partial curve, poor fit]
19 | Cc1ccnc(NC(=O)/C=C/c2ccccc2Cl)c1 |  | inconclusive: 29.1 µM [falling, partial curve, poor fit]
20 | COc1ccc2c(c1)O/C(=C\c1sccc1C)C2=O |  | inconclusive: 1.03 µM [rising, partial curve, poor fit]
21 | COc1ccc(CCNC(=O)COc2ccc(N(C)S(=O)(=O)c3ccc(C)cc3)cc2)cc1OC | inactive | 
22 | Cc1ccccc1CSc1nc2n(n1)C(c1cccs1)C1=C(CCCC1=O)N2 (stereo unspecified) |  | inconclusive: 20.6 µM [falling, single point]
23 | Cc1nc2c(c(=O)c3ccccc3n2C)c(=O)n1-c1ccccc1 |  | inconclusive: 20 µM [falling, partial curve, poor fit]
24 | O=S(=O)(c1ccc2c(c1)OCO2)N1CCN(c2nnnn2-c2ccccc2)CC1 | inconclusive: -1.64% | 
25 | O=C(CN1CCC(C(=O)c2ccc(Cl)cc2)CC1)Nc1ccc2c(c1)OCCO2 | inconclusive: -11.6% | 
26 | O=C(NCCC1=CCCCC1)c1ccc(Br)o1 | inconclusive: 4.09% | 

Row | Structure (SMILES) | activity change, negative = inhibition | Potency
27 | COc1ccc(NS(=O)(=O)c2cc(NC(=O)Cn3cnc4c3c(=O)n(C)c(=O)n4C)ccc2C)cc1 | inconclusive: -10.8% | 
28 | CS(=O)(=O)c1ccc(Cl)c(NC(=O)COC(=O)CCCN2C(=O)c3cccc4cccc(c34)C2=O)c1 |  | inconclusive: 0.184 µM [rising, full curve]
29 | CCc1nc2ccc(C(=O)N3CCN(c4cccc(C)c4C)CC3)cc2nc1CC | inactive | 
30 | O=[N+]([O-])c1c(NCCO)cc(Sc2nc3ccccc3s2)c2nonc12 | inconclusive: 16.8% | 
31 | O=C(c1ccc(Cl)c([N+](=O)[O-])c1)N(Cc1ccc(F)cc1)C1CCS(=O)(=O)C1 (stereo unspecified) | inconclusive: 2.34% | 
32 | Cc1cc(C)cc(N(C(=O)c2cc3ccccc3oc2=O)C2C=CS(=O)(=O)C2)c1 (stereo unspecified) | inactive | 
33 | CN(Cc1ccccc1F)c1ccc(S(=O)(=O)N2CCCC2)cn1 | inactive | 
34 | COc1ccc(COc2ccsc2C(=O)Nc2ccc(Cl)cc2)cc1 | inconclusive: 16% | 
35 | O=C(Cn1cnnn1)Nc1cccc(S(=O)(=O)N2CCCCC2)c1 | inactive | 
36 | O=C(CN(Cc1ccccc1)S(=O)(=O)c1ccccc1)N/N=C/c1ccc2c(c1)OCO2 | inconclusive: -4.36% | 
37 | CCOc1ccc(C(=O)N/N=C/c2ccc(-c3ccc(S(=O)(=O)Nc4ncccn4)cc3)o2)cc1 |  | inconclusive: 5.8 µM [falling, full curve]
38 | Cc1nnc(NC(=O)C2CCN(S(=O)(=O)c3cc([N+](=O)[O-])ccc3Cl)CC2)o1 | inconclusive: -0.424% | 
39 | Cc1cc(C(=O)N(C)CC2CCCN(CCc3ccc(F)cc3)C2)c(C)o1 (stereo unspecified) | inconclusive: -1.51% | 
40 | Cc1ccc(-c2ccc(C(=O)O)[nH]2)cc1 | inconclusive: 24.8% | 
41 | CCOC(=O)c1c(NC(=S)NC(=O)c2ccc(Cn3cc(Cl)cn3)o2)sc2c1CCC(C)C2 (stereo unspecified) | inactive | 
42 | NC1=NC2(CCC(c3ccccc3)CC2)n2c(nc3ccccc32)N1 (stereo unspecified) |  | inconclusive: 8.2 µM [rising, partial curve]
43 | CNc1oc(/C=C/c2cccc(OC)c2)nc1C#N | inactive | 
44 | COc1ccc(/C(C)=N/NC(=O)c2nnn(-c3nonc3N)c2-c2ccccc2)cc1 | inconclusive: 1.96% | 
45 | O=C(c1ccc(-c2ccccc2Cl)o1)N1CCN(c2ccccc2O)CC1 | inactive | 
46 | COC(=O)CCC(=O)OC1(C)C(=O)C2=COC(c3ccc(OC)cc3)=CC2=C(Br)C1=O (stereo unspecified) | inconclusive: 16.9% | 
47 | CC(=O)Nc1ccc(NC(=O)c2nc(S(=O)(=O)Cc3cccc(C)c3)ncc2Cl)cc1 | inconclusive: 20.9% | 
48 | S=c1[nH]ncn1/N=C/c1ccc(N2CCOCC2)cc1 |  | inconclusive: 25.9 µM [falling, partial curve, poor fit]
49 | COc1ccc(S(=O)(=O)N2CCCC2CNC(=O)C(=O)NCc2cccs2)cc1 (stereo unspecified) | inactive | 
50 | Oc1cc(OCc2ccccc2)ccc1-c1[nH]ncc1-c1ccccc1 | inconclusive: 16.9% | 
51 | Cc1cc(C(F)(F)F)nn1CC(=O)NNC(=S)Nc1ccc(F)cc1 | inconclusive: -8.46% | 
52 | CCOc1ccc(C(=O)NC(=S)N(Cc2ccccc2)Cc2ccccc2)cc1 | inconclusive: -5.31% | 

Row | Structure (SMILES) | activity change, negative = inhibition | Potency
53 | COc1ccc(/C=N/NC(=O)Cc2n[nH]c(=O)[nH]c2=O)cc1 | inconclusive: -1.44% | 
54 | CCOC(=O)c1nn(-c2ccccc2)c2nnc(Cc3ccc(Cl)cc3)c(=O)n12 | inconclusive: 4.86% | 
55 | COCCNC(=O)COc1ncnc2scc(-c3ccc(F)cc3)c12 | inactive | 
56 | O=C(NC(=S)Nc1cccnc1)c1cc2ccccc2o1 | inconclusive: -8.97% | 
57 | Cc1csc(NC(=O)CCc2nc3ccccc3s2)n1 | inconclusive: -3.36% | 
58 | O=C(NC(=S)NNC(=O)c1ccccc1O)c1ccc([N+](=O)[O-])cc1 |  | inconclusive: 10 µM [falling, partial curve]
59 | Cc1ccc(NC(=O)CN(C)C(=O)c2sc3cc(Cl)ccc3c2Cl)cc1 | inactive | 
60 | O=C(Nc1ccc(OC(F)(F)F)cc1)c1nc2ccccc2nc1N1CCCCC1 |  | inconclusive: 1.41 µM [rising, partial curve, poor fit]
61 | COc1cccc(NC(=O)Nc2ccc(C)c(Cl)c2)c1 | inconclusive: -3.07% | 
62 | Cc1ccc(-n2c(C)cc(/C=N/NC(=O)CC3(C)OCCO3)c2C)c(C)c1 | inactive | 
63 | O=C(Nc1nc2ccccc2[nH]1)c1ccccc1 |  | inconclusive: 4.61 µM [falling, partial curve]
64 | Cc1ccccc1Sc1ncnc2onc(C)c12 |  | inconclusive: 20.6 µM [falling, partial curve]
65 | O=C(c1cc(-c2ccc(O)cc2)on1)N1CCCc2ccccc21 |  | inconclusive: 17.8 µM [falling, partial curve]
66 | COC(=O)c1ccccc1NC(=O)c1ccc2nccnc2c1 |  | inconclusive: 22.4 µM [falling, partial curve, poor fit]
67 | COc1ccccc1CCNC(=O)C1CCN(C(=O)/C=C/c2ccccc2)CC1 | inconclusive: -14.2% | 
68 | CC(C)c1ccccc1NC(=S)NCc1nc2ccccc2[nH]1 | inconclusive: -4.04% | 
69 | CSC1=NC(=O)/C(=C/c2ccc(SC)cc2)S1 | inconclusive: 5.94% | 
70 | COc1ccc(OC)c(NC(=O)c2cc(-c3cc(C)cc(C)c3O)n[nH]2)c1 |  | inconclusive: 10 µM [falling, partial curve]
71 | COc1ccccc1N1CCN(C(=O)c2ccc(S(=O)(=O)N3CCCCC3)cc2)CC1 | inconclusive: 4.72% | 
72 | Cc1cc(C)n(C(=O)c2ccc(S(=O)(=O)NCC3CCCO3)cc2)n1 (stereo unspecified) | inconclusive: 8.46% | 
73 | COc1ccccc1-c1cc(SC)c(C#N)c(=O)o1 | inconclusive: -10.2% | 
74 | CCN(CC)S(=O)(=O)c1ccc(C(=O)OCn2nnc3ccccc3c2=O)cc1 | inactive | 
75 | CCCCn1c(N)c(N(CC(C)C)C(=O)C2CCN(S(=O)(=O)c3ccc(C)c(C)c3)CC2)c(=O)[nH]c1=O | inconclusive: 5.83% | 
76 | O=[N+]([O-])c1ccc(N2N=C(c3ccco3)CC2c2ccccc2)cc1 (stereo unspecified) |  | inconclusive: 7.94 µM [rising, partial curve, poor fit]

Quoted at random: 3 compounds from above.
Row | Structure (SMILES) | activity change, negative = inhibition | Potency
15 | COc1ccc(/C=N/Nc2ccccn2)cc1OC |  | inconclusive: 15.8 µM [falling, single point]
46 | COC(=O)CCC(=O)OC1(C)C(=O)C2=COC(c3ccc(OC)cc3)=CC2=C(Br)C1=O (stereo unspecified) | inconclusive: 16.9% | 
56 | O=C(NC(=S)Nc1cccnc1)c1cc2ccccc2o1 | inconclusive: -8.97% | 
